Test results: doi:10.1101/2024.05.31.595485
These are yes or no findings as the source states them, for the method shown. Binding seen in cells or lysates may run through a third protein. Some binding calls cover weakened binding; strength is not graded here. Tags and fused reporters may be left off the sequences shown.

The chains behind the UniProt entries cited, without tags or fusion partners.
UniProt Q9CW03: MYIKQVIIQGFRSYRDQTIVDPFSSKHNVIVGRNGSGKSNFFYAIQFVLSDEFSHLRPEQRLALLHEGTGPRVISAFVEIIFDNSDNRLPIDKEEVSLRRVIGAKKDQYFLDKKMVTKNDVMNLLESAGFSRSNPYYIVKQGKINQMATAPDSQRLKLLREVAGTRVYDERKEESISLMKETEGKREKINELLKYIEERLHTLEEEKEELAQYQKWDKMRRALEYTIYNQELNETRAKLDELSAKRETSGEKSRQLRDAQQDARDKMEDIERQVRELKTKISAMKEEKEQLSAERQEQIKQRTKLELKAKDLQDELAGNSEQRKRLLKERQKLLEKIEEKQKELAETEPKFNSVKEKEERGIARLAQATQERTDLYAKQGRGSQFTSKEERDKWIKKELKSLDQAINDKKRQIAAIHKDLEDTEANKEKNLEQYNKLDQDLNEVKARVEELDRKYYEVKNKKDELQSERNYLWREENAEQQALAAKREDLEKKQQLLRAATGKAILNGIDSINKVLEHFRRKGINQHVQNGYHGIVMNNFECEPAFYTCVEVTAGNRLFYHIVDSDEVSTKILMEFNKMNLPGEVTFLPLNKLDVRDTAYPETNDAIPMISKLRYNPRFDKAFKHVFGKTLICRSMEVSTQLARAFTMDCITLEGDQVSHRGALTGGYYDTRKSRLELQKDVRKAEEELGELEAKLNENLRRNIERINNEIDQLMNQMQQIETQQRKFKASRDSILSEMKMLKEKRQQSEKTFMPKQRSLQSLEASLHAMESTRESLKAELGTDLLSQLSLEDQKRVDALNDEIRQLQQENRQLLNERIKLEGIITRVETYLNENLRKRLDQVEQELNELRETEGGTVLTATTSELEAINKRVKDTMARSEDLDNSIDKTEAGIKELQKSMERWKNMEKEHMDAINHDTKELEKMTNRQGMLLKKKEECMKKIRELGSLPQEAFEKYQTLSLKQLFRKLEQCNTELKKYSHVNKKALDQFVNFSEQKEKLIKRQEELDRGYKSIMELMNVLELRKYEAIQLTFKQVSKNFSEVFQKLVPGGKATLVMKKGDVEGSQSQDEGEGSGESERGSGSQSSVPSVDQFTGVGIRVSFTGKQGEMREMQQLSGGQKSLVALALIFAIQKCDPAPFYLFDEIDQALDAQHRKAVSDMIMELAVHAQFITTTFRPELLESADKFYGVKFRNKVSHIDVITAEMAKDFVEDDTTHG

Biological target: T1, STAG3 (endogenous, chromatin-bound) (mouse (endogenous in mESCs)) (UniProt O70576)
T1 sequence: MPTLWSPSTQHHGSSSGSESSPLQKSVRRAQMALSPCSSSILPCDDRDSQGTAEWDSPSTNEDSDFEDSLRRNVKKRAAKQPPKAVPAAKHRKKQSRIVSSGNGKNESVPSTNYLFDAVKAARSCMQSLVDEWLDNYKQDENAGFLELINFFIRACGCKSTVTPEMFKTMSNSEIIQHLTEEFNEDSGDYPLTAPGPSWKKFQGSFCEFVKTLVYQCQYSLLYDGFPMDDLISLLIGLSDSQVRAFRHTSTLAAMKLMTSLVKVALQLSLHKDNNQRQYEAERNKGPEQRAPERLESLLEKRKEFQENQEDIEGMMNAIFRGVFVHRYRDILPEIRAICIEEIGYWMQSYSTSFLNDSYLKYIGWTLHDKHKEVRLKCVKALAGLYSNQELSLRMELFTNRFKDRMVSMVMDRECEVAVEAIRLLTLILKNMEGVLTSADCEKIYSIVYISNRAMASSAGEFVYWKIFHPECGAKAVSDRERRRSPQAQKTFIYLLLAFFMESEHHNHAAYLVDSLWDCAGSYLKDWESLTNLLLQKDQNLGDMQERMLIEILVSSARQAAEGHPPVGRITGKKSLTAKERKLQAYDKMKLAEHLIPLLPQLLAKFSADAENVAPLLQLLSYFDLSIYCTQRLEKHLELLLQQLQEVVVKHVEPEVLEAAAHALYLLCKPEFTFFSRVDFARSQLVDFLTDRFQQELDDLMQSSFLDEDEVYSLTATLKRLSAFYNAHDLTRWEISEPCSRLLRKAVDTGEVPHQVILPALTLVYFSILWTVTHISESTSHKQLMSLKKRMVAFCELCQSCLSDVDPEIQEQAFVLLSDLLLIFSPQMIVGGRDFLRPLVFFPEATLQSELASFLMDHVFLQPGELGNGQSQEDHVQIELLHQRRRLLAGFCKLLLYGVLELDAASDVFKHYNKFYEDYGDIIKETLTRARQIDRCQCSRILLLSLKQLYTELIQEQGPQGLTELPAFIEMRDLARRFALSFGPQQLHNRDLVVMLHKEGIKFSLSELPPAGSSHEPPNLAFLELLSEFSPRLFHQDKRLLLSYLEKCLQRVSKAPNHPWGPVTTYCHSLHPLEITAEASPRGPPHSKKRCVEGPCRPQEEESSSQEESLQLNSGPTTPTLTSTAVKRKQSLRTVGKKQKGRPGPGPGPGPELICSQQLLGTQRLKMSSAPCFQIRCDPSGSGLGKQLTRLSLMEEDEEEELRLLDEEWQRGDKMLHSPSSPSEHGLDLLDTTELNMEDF
Assay: co-IP

- binding: binds
Substance: SMC3 (from UniProt Q9CW03 1-1217)
